Results on 15 targets are retold here after the supplement of paper PMC10849652.

Chains of the proteins cited; added tags and fusions are not shown. Lines headed by an entry give the natural chain unless they say otherwise; changes in a name come on top.
UniProt Q9BWF3: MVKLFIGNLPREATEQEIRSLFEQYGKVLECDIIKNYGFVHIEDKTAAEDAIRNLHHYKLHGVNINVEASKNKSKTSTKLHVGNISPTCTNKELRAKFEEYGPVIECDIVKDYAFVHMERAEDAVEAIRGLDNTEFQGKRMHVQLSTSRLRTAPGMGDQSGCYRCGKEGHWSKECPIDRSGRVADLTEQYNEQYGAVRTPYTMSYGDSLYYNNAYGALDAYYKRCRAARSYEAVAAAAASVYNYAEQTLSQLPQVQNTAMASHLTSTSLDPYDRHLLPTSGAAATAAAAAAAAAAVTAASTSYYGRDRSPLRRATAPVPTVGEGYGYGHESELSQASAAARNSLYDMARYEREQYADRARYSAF
UniProt Q96AA3: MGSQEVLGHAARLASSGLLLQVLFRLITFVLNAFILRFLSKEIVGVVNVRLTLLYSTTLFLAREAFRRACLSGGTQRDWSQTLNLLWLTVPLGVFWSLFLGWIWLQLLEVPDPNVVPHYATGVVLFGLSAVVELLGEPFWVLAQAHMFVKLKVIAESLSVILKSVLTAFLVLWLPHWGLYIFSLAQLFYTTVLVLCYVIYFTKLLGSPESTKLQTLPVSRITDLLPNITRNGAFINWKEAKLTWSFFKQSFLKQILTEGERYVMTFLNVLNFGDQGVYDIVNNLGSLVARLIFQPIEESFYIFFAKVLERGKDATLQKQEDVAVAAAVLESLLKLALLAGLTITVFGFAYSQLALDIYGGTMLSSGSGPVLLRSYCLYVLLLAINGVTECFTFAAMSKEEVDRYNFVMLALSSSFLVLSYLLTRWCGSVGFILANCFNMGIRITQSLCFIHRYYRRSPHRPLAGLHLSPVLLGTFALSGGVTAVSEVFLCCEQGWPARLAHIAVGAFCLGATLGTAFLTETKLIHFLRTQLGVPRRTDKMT
UniProt Q8TDY2, whole entry, looked up: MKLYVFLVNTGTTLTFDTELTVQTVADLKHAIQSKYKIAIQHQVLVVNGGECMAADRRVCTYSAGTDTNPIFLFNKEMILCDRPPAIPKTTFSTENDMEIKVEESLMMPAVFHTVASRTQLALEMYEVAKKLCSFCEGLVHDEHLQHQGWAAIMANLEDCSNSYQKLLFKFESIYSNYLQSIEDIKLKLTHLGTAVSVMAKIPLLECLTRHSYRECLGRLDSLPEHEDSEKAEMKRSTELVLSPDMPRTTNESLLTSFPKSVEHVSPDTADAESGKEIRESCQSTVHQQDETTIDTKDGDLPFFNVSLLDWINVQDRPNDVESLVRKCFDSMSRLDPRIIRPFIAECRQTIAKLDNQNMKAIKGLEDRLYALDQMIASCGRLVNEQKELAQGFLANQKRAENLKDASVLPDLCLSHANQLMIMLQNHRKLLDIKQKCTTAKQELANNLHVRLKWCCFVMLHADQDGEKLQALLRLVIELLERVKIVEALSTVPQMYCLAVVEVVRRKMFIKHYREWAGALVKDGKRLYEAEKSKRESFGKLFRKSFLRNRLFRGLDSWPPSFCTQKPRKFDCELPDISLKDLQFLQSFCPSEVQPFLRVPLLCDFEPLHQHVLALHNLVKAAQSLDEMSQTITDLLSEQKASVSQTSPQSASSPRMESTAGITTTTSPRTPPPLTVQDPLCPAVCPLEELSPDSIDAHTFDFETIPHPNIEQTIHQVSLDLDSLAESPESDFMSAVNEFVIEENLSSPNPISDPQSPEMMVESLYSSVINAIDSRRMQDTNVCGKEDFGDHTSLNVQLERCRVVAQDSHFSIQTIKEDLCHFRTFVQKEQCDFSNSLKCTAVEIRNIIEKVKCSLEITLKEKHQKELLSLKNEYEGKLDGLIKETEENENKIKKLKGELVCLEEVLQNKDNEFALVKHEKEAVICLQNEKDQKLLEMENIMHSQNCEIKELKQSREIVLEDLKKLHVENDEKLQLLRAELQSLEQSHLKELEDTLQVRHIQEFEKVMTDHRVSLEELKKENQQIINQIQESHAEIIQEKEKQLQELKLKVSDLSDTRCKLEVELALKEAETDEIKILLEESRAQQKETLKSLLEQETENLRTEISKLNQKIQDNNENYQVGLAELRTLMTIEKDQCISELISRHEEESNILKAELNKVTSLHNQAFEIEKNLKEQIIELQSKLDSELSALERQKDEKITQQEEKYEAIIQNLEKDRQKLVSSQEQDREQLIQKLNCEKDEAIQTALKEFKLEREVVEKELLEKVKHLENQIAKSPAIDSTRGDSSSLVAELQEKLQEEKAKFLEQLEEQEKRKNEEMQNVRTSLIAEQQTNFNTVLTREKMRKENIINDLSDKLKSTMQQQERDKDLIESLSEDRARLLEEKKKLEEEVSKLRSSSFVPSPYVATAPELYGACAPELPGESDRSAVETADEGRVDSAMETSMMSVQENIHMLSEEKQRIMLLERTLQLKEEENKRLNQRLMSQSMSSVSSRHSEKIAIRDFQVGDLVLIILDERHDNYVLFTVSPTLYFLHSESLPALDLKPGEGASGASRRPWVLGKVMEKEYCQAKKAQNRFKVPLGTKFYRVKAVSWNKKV
UniProt Q7Z6E9: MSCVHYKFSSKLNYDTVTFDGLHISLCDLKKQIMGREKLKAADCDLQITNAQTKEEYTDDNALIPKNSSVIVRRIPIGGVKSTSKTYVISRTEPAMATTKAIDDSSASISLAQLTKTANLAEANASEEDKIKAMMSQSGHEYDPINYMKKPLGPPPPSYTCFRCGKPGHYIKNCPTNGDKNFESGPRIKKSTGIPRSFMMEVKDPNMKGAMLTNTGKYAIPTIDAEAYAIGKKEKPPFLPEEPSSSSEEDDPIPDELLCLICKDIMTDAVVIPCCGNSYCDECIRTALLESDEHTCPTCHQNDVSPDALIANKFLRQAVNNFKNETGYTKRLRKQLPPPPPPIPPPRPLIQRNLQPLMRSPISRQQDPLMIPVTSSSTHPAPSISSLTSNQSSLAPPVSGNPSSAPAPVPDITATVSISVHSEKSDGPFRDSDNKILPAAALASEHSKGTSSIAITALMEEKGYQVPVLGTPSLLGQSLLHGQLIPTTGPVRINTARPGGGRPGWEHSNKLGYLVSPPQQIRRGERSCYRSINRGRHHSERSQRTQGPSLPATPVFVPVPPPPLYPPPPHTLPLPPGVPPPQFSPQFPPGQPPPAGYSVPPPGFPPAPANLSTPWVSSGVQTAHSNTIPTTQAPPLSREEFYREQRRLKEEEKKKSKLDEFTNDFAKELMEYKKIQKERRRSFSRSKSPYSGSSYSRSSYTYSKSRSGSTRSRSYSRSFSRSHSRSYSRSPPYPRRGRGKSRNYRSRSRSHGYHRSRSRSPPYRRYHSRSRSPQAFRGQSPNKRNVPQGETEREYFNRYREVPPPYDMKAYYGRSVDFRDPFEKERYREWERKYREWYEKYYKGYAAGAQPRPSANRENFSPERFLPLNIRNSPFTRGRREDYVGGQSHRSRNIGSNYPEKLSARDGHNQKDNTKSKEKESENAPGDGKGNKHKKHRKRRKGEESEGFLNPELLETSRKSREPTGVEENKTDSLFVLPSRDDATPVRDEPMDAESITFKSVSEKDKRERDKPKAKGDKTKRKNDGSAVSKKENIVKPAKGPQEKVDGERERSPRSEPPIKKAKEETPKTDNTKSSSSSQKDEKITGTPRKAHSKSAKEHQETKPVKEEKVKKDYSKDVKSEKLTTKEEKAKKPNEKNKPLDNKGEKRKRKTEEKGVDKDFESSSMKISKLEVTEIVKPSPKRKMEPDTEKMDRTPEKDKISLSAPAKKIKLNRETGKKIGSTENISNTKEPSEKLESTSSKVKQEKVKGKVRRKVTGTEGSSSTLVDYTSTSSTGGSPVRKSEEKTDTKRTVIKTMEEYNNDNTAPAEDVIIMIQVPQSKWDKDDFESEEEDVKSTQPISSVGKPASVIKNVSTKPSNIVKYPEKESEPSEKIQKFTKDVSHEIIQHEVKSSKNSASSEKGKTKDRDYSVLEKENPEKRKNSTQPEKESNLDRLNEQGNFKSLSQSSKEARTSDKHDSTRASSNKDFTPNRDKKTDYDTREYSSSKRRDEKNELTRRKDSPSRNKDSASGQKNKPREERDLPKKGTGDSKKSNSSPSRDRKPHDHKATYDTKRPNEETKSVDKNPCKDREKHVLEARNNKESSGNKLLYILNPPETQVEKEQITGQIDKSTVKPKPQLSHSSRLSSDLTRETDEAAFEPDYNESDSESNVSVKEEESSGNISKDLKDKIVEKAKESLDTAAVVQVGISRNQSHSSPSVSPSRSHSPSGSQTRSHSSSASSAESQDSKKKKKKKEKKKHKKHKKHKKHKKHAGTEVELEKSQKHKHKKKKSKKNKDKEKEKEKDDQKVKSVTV
UniProt Q9P2N5: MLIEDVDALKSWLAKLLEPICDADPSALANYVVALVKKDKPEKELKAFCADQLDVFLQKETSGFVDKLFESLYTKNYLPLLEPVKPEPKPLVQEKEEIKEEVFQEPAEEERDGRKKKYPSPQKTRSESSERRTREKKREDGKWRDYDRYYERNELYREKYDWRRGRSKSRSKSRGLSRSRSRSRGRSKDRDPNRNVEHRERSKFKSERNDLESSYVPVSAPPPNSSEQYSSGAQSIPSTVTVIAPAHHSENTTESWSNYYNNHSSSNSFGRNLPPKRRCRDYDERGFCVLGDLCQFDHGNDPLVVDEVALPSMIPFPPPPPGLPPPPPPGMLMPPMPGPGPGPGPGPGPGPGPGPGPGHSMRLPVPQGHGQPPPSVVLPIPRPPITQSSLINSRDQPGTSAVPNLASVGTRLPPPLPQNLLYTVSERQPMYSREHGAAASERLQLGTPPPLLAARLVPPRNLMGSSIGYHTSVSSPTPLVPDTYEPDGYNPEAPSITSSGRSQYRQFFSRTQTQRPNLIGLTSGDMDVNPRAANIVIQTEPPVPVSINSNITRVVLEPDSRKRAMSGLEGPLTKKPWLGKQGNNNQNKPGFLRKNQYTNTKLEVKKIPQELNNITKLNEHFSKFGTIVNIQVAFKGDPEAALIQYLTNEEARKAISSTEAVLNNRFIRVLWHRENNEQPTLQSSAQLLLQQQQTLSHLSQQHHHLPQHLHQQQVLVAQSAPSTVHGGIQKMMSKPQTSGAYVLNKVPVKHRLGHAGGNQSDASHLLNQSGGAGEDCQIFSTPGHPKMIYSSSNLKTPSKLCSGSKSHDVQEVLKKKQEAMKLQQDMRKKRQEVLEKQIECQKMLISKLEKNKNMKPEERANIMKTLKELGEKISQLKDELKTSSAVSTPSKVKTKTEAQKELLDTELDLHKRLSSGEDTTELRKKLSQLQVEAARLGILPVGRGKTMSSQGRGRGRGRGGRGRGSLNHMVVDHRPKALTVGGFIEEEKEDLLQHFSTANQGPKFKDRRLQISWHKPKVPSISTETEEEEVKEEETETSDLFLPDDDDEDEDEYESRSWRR
UniProt P35250, whole entry, looked up: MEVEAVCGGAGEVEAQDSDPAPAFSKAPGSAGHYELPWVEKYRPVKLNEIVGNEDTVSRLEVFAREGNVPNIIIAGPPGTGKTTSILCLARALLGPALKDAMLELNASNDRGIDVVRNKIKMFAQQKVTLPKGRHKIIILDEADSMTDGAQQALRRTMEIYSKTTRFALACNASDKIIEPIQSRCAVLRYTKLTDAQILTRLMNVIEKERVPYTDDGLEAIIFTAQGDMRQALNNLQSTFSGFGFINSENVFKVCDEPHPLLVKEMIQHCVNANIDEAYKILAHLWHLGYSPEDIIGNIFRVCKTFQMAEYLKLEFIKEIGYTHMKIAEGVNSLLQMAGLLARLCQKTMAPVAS
UniProt Q96HR9: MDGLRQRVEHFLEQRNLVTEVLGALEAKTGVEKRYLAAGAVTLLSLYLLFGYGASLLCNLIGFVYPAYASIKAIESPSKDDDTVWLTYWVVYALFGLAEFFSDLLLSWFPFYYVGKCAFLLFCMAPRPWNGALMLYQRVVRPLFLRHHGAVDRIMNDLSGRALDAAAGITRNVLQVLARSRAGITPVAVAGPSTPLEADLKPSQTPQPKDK
UniProt P54136: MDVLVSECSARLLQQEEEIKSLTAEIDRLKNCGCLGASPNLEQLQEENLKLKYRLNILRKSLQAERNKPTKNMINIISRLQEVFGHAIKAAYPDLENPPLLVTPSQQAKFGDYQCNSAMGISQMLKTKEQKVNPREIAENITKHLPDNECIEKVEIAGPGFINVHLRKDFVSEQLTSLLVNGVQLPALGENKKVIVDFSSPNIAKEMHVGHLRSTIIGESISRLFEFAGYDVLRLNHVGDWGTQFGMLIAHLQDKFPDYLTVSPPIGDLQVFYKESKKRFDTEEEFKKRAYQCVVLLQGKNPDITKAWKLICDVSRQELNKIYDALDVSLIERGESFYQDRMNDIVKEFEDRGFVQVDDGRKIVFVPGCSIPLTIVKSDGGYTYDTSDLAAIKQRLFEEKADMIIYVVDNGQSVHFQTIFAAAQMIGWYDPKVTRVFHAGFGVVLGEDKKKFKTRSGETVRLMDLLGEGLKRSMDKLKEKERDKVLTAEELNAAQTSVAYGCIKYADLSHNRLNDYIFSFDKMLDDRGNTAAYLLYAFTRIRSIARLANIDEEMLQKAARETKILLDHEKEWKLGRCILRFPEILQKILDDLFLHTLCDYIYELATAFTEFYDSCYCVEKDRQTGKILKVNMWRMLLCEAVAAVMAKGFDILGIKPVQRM

Holding throughout (assay): log2 fold change, soluble protein after heating vs DMSO (PISA); higher = thermal stabilisation; K562 lysate, 10 uM; active = over 0.2 and 3.5 SD of the protein, either way, in both replicates (recomputed)
Compound in one assay: CCCS(=O)(=O)Nc1ccc(F)c(C(=O)c2c[nH]c3ncc(-c4ccc(Cl)cc4)cc23)c1F [vemurafenib]
In outline:
(§1)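 A 30 min treatment with 10 μM compound was applied to crude K562 extract at 1 mg/mL protein in PBS pH 7.4 with 1 mM MgCl2. Heating for 3 min spanned 48°C-58°C, after which aliquots were pooled, adjusted to 0.5% NP-40 at 4°C and spun at 21,000xg for 90 min. TMTpro 16plex LC-MS/MS of the supernatant, with channel sums equalised, gave values recorded as log-two fold change in thermal stability against solvent controls, from duplicates.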

Compound in assay [1]: CCCS(=O)(=O)Nc1ccc(F)c(C(=O)c2c[nH]c3ncc(Cl)cc23)c1F
A digest of the protocol:
as §1

Compound in a further assay: CCN(CCCOc1ccc2c(Nc3cc(CC(=O)Nc4cccc(F)c4)[nH]n3)ncnc2c1)CCOP(=O)(O)O [barasertib]
A digest of the protocol:
as §1

Compound in assay [2]: CC[C@@H]1C(=O)N(C)c2cnc(Nc3ccc(C(=O)NC4CCN(C)CC4)cc3OC)nc2N1C1CCCC1
A digest of the protocol:
as §1

Compound in the next assay: CC[C@@H]1C(=O)N(C)c2cnc(Nc3ccc(C(=O)N[C@H]4CC[C@H](N5CCN(CC6CC6)CC5)CC4)cc3OC)nc2N1C(C)C [volasertib]
In outline:
as §1

Compound in assay [3]: CCn1c(C(=O)N(C2CC2)C2CC2)cc2c3c(ncn3C)c(Nc3cc(C)n(C)n3)nc21
A digest of the protocol: as §1

Compound in assay [4]: CCn1cc(-c2ccnc3[nH]c(-c4cccc(CN(C)C)c4)cc23)c(-c2ccc(NC(=O)N(C)C)cc2)n1
In outline: as §1

Compound in assay [5]: CN1CCC(CNc2ccc3ncc(-c4cccc(OC(F)(F)F)c4)n3n2)CC1
In outline:
as §1

Compound in another assay: CN1CCN(CCOc2cc(OC3CCOCC3)c3c(Nc4c(Cl)ccc5c4OCO5)ncnc3c2)CC1 [saracatinib]
A digest of the protocol: as §1

Compound in a further assay: CN1CCN(c2nc(C3=C(c4c[nH]c5ccccc45)C(=O)NC3=O)c3ccccc3n2)CC1 [sotrastaurin]
A digest of the protocol:
as §1

The list shows a part of the results.

Take REPIN1 isoform 4 (UniProt Q9BWE0): the log2 fold change was inactive: 0.016 with vemurafenib; inactive: 0.041 in assay [1]; inactive: -0.012 in the assay with barasertib; inactive: 0.023 in [2]; inactive: -0.058 with volasertib; inactive: -0.054 in assay [3]. The log2 fold change in assay [4] was inactive: -0.094; in assay [5] it was inactive: 0.016; in the assay with saracatinib it was inactive: 0; with sotrastaurin, inactive: 0.038.
For the target RBCK1 (UniProt Q9BYM8), the log2 fold change with vemurafenib is inactive: -0.149; in [1], inactive: 0.053; with barasertib, inactive: 0.045; in [2] it was inactive: -0.019; with volasertib, inactive: 0.016; in assay [3], inactive: -0.001. The log2 fold change in [4] was inactive: 0.191; in [5], inactive: -0.092; in the assay with saracatinib, inactive: 0.028; with sotrastaurin it was inactive: 0.033.
In the case of RBM4 (UniProt Q9BWF3), the log2 fold change in the assay with vemurafenib was inactive: -0.013; in [1], inactive: -0.042; in the assay with barasertib, inactive: 0.023; in assay [2], inactive: -0.053; with volasertib, inactive: -0.032; in assay [3] it was inactive: 0.045. Further, the log2 fold change was active: 0.344 in assay [4], inactive: -0.044 in assay [5], inactive: -0.013 with saracatinib and inactive: -0.015 with sotrastaurin.
As to RFT1 (UniProt Q96AA3), the log2 fold change is inactive: 0.07 with vemurafenib; inactive: -0.042 in [1]; inactive: -0.014 with barasertib; inactive: 0.023 in assay [2]; inactive: 0.028 with volasertib; inactive: 0.068 in [3]. Besides, the log2 fold change was inactive: -0.007 in assay [4], inactive: 0.056 in assay [5], inactive: 0.011 with saracatinib and inactive: 0.022 with sotrastaurin.
With RDH13 (UniProt Q8NBN7), the log2 fold change is inactive: -0.017 in the assay with vemurafenib; inactive: 0.038 in assay [1]; inactive: 0.032 in the assay with barasertib; inactive: -0.085 in assay [2]; inactive: -0.038 with volasertib; inactive: 0.054 in assay [3]. The log2 fold change in [4] was inactive: -0.128; in [5] it was inactive: -0.172; with saracatinib, inactive: 0.013; with sotrastaurin, inactive: -0.046.
In the case of RBM33 (UniProt Q96EV2), the log2 fold change with vemurafenib was inactive: 0.08; in assay [1] it was inactive: 0.042; with barasertib, inactive: 0.038; in [2] it was inactive: 0.054; with volasertib, inactive: 0.012; in assay [3] it was inactive: 0.02. Besides, the log2 fold change in assay [4] was inactive: 0.134; in assay [5], inactive: -0.002; with saracatinib, inactive: 0.016; with sotrastaurin, inactive: 0.027.
For the target RB1CC1 (UniProt Q8TDY2), the log2 fold change with vemurafenib was inactive: 0.028; in assay [1], inactive: 0.016; with barasertib it was inactive: 0.018; in assay [2], inactive: 0.063; in the assay with volasertib it was inactive: -0.021; in [3], inactive: -0.007. For the same target, the log2 fold change in assay [4] is inactive: 0.031; in assay [5], inactive: 0; with saracatinib it was inactive: 0.011; in the assay with sotrastaurin it was inactive: -0.007.
In the case of RAVER1 (UniProt E9PAU2), the log2 fold change with vemurafenib was inactive: 0.042; in assay [1] it was inactive: 0.043; with barasertib, inactive: -0.051; in assay [2], inactive: 0.072; in the assay with volasertib, inactive: -0.033; in assay [3] it was inactive: 0.055. Further, the log2 fold change in [4] is inactive: 0.044; in assay [5], inactive: -0.067; with saracatinib, inactive: 0.007; with sotrastaurin, inactive: -0.022.
For RBBP6 (UniProt Q7Z6E9), the log2 fold change with vemurafenib is inactive: 0.051; in assay [1], inactive: 0.01; in the assay with barasertib it was inactive: 0.034; in [2], inactive: 0.022; with volasertib, inactive: 0; in assay [3], inactive: -0.043. For the same target, the log2 fold change was inactive: 0.034 in assay [4], inactive: -0.002 in assay [5], inactive: 0.039 with saracatinib and inactive: -0.021 with sotrastaurin.
Turning to RBBP8 isoform 2 (UniProt Q99708), the log2 fold change in the assay with vemurafenib is inactive: 0.002; in assay [1] it was inactive: 0.182; in the assay with barasertib, inactive: -0.013; in assay [2] it was inactive: 0.079; in the assay with volasertib it was inactive: -0.019; in assay [3] it was inactive: -0.065. Besides, the log2 fold change in assay [4] is inactive: 0.065; in assay [5], inactive: -0.021; in the assay with saracatinib it was inactive: 0.018; in the assay with sotrastaurin it was inactive: -0.017.
Take RBM27 (UniProt Q9P2N5): the log2 fold change with vemurafenib is inactive: 0.052; in assay [1], inactive: 0.004; with barasertib, inactive: 0.033; in assay [2] it was inactive: 0.022; in the assay with volasertib, inactive: 0.008; in [3], inactive: 0.022. Moreover, the log2 fold change in assay [4] is inactive: 0.042; in [5], inactive: -0.021; with saracatinib it was inactive: 0.023; with sotrastaurin, inactive: 0.009.
On to RFC2 (UniProt P35250), for which the log2 fold change with vemurafenib was inactive: -0.043; in assay [1], inactive: 0.007; with barasertib, inactive: 0.038; in assay [2] it was inactive: -0.095; in the assay with volasertib it was inactive: -0.09; in assay [3], inactive: 0.024. Besides, the log2 fold change in assay [4] was inactive: -0.068; in assay [5], inactive: 0.023; with saracatinib it was inactive: -0.005; with sotrastaurin, inactive: 0.03.
As to RETREG3 (UniProt Q86VR2), the log2 fold change with vemurafenib is inactive: 0.028; in [1], inactive: 0.006; with barasertib it was inactive: 0.038; in assay [2], inactive: 0.005; with volasertib, inactive: 0.014; in assay [3], inactive: -0.054. In addition, the log2 fold change in assay [4] is inactive: 0.161; in assay [5], inactive: -0.116; in the assay with saracatinib, inactive: -0.006; in the assay with sotrastaurin, inactive: -0.029.
REEP6 (UniProt Q96HR9): the log2 fold change with vemurafenib was inactive: 0.072; in assay [1], inactive: 0.021; with barasertib, inactive: 0.093; in assay [2], inactive: -0.022; with volasertib, inactive: 0.077; in [3], inactive: 0. In addition, the log2 fold change was active: -0.358 in [4], inactive: 0.072 in assay [5], inactive: 0.094 with saracatinib and inactive: 0.017 with sotrastaurin.
Turning to RARS (UniProt P54136), the log2 fold change in the assay with vemurafenib is inactive: -0.004; in [1] it was inactive: -0.003; with barasertib, inactive: 0.046; in [2], inactive: -0.093; with volasertib, inactive: -0.078; in [3] it was inactive: 0.067. In addition, the log2 fold change in assay [4] is inactive: 0.013; in assay [5] it was inactive: -0.039; with saracatinib, inactive: 0.027; with sotrastaurin, inactive: 0.045.
